Experimental data published in US20220281999A1.
Results are given in words; binding and its absence hold for the method and conditions named. Some binding calls cover weakened binding; strength is not graded here.

Biological target: streptavidin (genus Streptomyces) (UniProt P22629)
Test: plate fluorescence assay (excitation 485 nm, emission 535 nm); binding through biotin

- binding: binds
Binder: GGSGGSK (N-terminal modified with fluorescein; C-terminal modified with biotin) [biotinylated fluorescent peptide (GGSGGSK, N-terminal fluorescein, C-terminal biotin)]
